Assay results published in PubChem BioAssay AID504834 (National Center for Advancing Translational Sciences (NCATS), 2011).
About 22,000 (6.9%) of roughly 320,000 compounds were called active. Inconclusive means that the source gave no clear call. Such entries were picked first, then a sample of the others. Calls follow the shape of the dose curve; as a rule, active = well fitted inhibition curve with a large enough effect; inconclusive = small, poorly fitted or top-dose-only effect, or another doubt; inactive = no such curve, though single readings can be large or run the other way. Where the call is inconclusive, the potency comes from a doubtful curve fit.

test: Primary qHTS for delayed death inhibitors of the malarial parasite plastid, 96 hour incubation; conditions: P. falciparum luciferase reporter growth; series mostly up to 28.7 µM; activity change, negative = inhibition: at the top concentration
Outline: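 Luminescence readout: decreased luciferase signal marks inhibited growth of reporter-expressing P. falciparum in infected red cells (2% hematocrit, 0.05% parasitemia final), exposed to compound two generations (96 h, 37 C, 5% CO2).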
% is scaled to controls: 0 for no effect and ±100 for the full control effect; potency is read from the fitted curve at half-maximal effect.

SMILES	activity change, negative = inhibition	Potency
O=C(CN1CCSC1=NCc1ccccc1)c1ccccc1	inactive: 13.8%	
COc1ccc2cc(C(C)C(=O)Nc3cccc(S(=O)(=O)N(C)C)c3)ccc2c1 (stereo unspecified)		inconclusive: 10.4 µM [inhibitor, partial curve, poor fit]
CC(C)(C)n1nnnc1C(c1cccs1)N1CCN(c2ccccc2)CC1 (stereo unspecified)	inactive: 24.1%	
CCN1C/C(=N\S(=O)(=O)/N=C2\CN(CC)C(=O)N2CC)N(CC)C1=O	inactive: 32.8%	
COc1ccc(N(CC(=O)N2CCN(C)CC2)S(=O)(=O)c2cc(C)ccc2OC)cc1Cl		active: 8.28 µM
Cc1cc(C)n2ncc(-c3cccc(Br)c3)c2n1		inconclusive: 18.5 µM [inhibitor, single point]
CCCNC(=O)c1ccccc1NC(=O)C1COc2ccccc2O1 (stereo unspecified)		inconclusive: 18.5 µM [inhibitor, single point]
O=C(NCc1nc2ccccc2[nH]1)C1=C[C@H](c2ccccc2)C[C@H](OCCCCO)O1		inconclusive: 18.5 µM [inhibitor, single point]
CCCC(=O)Nc1nc2n(n1)C(c1ccccc1)CC(=O)N2 (stereo unspecified)	inactive: 86%	
CC(NC(=O)COC(=O)Cc1ccc(-c2ccccc2)cc1)c1ccccc1 (stereo unspecified)	inactive: 4.28%	
CCC(C)NC(=O)C(CCSC)NC(=O)c1ccccc1 (stereo unspecified)		inconclusive: 0.0037 µM [inhibitor, full curve, poor fit]
Cc1ccc2c(COC(=O)c3ccccc3OC(F)F)cc(=O)oc2c1	inactive: 28%	
CN1CCc2c(OCc3ccc(F)cc3)cccc2C1=O		inconclusive: 4.65 µM [inhibitor, partial curve]
COc1ccc(-n2c(=O)cc(N3CCN(c4ccccc4OC)CC3)[nH]c2=O)cc1		inconclusive: 10.4 µM [inhibitor, partial curve, poor fit]
COc1ccc(C2Nc3ccccc3C(=O)N2c2ccccc2)cc1CSc1ccccn1 (stereo unspecified)		inconclusive: 11.7 µM [inhibitor, single point]
O=C(Nc1ncccc1O)c1ccc2c(c1)OCO2		active: 4.15 µM
COc1cccc(Oc2cc(Cl)nc(N)n2)c1	inactive: 9.84%	
Cc1cc(C(=O)OCC(=O)NC2(C#N)CCCCC2)c(C)o1		inconclusive: 20.8 µM [inhibitor, partial curve, poor fit]
CC(C)(C)NC(=O)c1ccc(NC(=O)c2ccccc2-c2ccccc2C(=O)O)cc1		inconclusive: 18.5 µM [inhibitor, single point]
CC(C)C(=O)Nc1cccc(-c2nc3ncccc3o2)c1	inactive: -8.4%	
CCOC(=O)[C@H]1[C@H]2COc3ccc(OC)cc3[C@@H]2N2C(=O)CN(Cc3ccc(OC)cc3)C(=O)[C@@]12C		inconclusive: 14.7 µM [inhibitor, single point]
Cc1ccc(C(=O)NCCc2cccc(Cl)c2)cc1[N+](=O)[O-]		inconclusive: 11.7 µM [inhibitor, partial curve, poor fit]
COc1cc(C(=O)NC(=S)Nc2ccc(N3CCCC3)cc2)cc(OC)c1OC		inconclusive: 13.1 µM [inhibitor, single point]
COc1ccc2nc(SCC(=O)Nc3ccc(S(=O)(=O)Nc4nccc(C)n4)cc3)[nH]c2c1	inactive: 29.5%	

SMILES	activity change, negative = inhibition	Potency
O=C1c2ccccc2C(=O)N1CCc1csc(NNc2nc(CCN3C(=O)c4ccccc4C3=O)cs2)n1		inconclusive: 18.5 µM [inhibitor, single point]
COc1cccc(NC(=O)C2C3C=CC4(O3)C2C(=O)N(C(C)C)C4C(=O)NC2CCCCC2C)c1 (stereo unspecified)		inconclusive: 16.5 µM [inhibitor, single point]
CCOc1ccc(S(=O)(=O)Nc2cccc(-c3ccc(N4CCCCCC4)nn3)c2)cc1	inactive: 11.9%	
CCOc1ccccc1OCCn1nnc2ccccc21		active: 10.4 µM
CC(C)(C)c1ccc(S(=O)(=O)Nc2cccnc2)cc1		inconclusive: 4.15 µM [inhibitor, single point]
Cc1ccc(-n2ncc3c2CCCC3NC(=O)CCCN2CCCCC2=O)cc1C (stereo unspecified)		active: 13.1 µM
O=C(Nc1cccc(NC(=O)c2cccs2)c1)c1ccc(Br)cc1	inactive: -9.95%	
Cc1ccc(OCc2ccc(C(=O)NCC3CCCO3)cc2)cc1 (stereo unspecified)		inconclusive: 2.33 µM [inhibitor, partial curve, poor fit]
Cc1nc2sc(C(c3ccco3)N3CC(C)OC(C)C3)c(O)n2n1 (stereo unspecified)		inconclusive: 0.522 µM [inhibitor, full curve]
CCOc1ccc(C(C)=O)cc1N1C(=O)C2C3C=CC(O3)C2C1=O (stereo unspecified)	inactive: -55.8%	
CSCCC(NC(=O)c1ccccc1Cl)C(=O)NC1CCN(Cc2ccccc2)CC1 (stereo unspecified)	inactive: -21%	
Cc1cccc(S(=O)(=O)Nc2ccc3c(c2)OCCO3)c1	inactive: -10.2%	
CC(C)Cc1nnc(NC(=O)CSc2nc(O)c(-c3ccccc3)c(=O)[nH]2)s1		inconclusive: 13.1 µM [inhibitor, single point]
O=C(Nc1nc(-c2ccc(Cl)s2)cs1)c1ccccc1		active: 9.28 µM
CCCc1nc2ccc([N+](=O)[O-])cc2[nH]1		active: 10.4 µM
Oc1ccc(/C=C/c2ccc3cccc(O)c3n2)cc1Br		inconclusive: 8.28 µM [inhibitor, partial curve, poor fit]
COc1ccc(-n2cccc2/C=C2/NC(=O)N(c3cccc(Cl)c3)C2=O)cc1	inactive: 71.6%	
Cc1cccc(CN(C)CCc2ccccn2)c1		inconclusive: 18.5 µM [inhibitor, single point]
NNc1nc(-c2ccccc2)cc(-c2ccccc2)n1	inactive: 4.89%	
COc1ccc(C(CC(=O)O)NC(=O)c2ccccc2)cc1OC (stereo unspecified)		inconclusive: 18.5 µM [inhibitor, single point]
Cc1cccc(NC(=S)N(CCN2CCOCC2)Cc2ccccc2F)c1		inconclusive: 0.0329 µM [inhibitor, full curve, poor fit]
Brc1ccc2[nH]cc(/C=N/N3CCCCC3)c2c1	inactive: 7.74%	
CN(C)/C=C1/C(=O)NC(=O)N(CCNc2ncc(C(F)(F)F)cc2Cl)C1=O	inactive: 28.6% [at 1.15 µM]	
Cc1ccc(C)n1-c1nn(S(=O)(=O)c2cccc3cccnc23)c2cccc(F)c12		inconclusive: 8.28 µM [inhibitor, partial curve]

Rewritten bar-delimited: entries from further up.
SMILES | activity change, negative = inhibition | Potency
CC(C)(C)c1ccc(S(=O)(=O)Nc2cccnc2)cc1 |  | inconclusive: 4.15 µM [inhibitor, single point]
Cc1ccc(-n2ncc3c2CCCC3NC(=O)CCCN2CCCCC2=O)cc1C (stereo unspecified) |  | active: 13.1 µM
O=C(Nc1cccc(NC(=O)c2cccs2)c1)c1ccc(Br)cc1 | inactive: -9.95% | 
Cc1ccc(OCc2ccc(C(=O)NCC3CCCO3)cc2)cc1 (stereo unspecified) |  | inconclusive: 2.33 µM [inhibitor, partial curve, poor fit]
Cc1nc2sc(C(c3ccco3)N3CC(C)OC(C)C3)c(O)n2n1 (stereo unspecified) |  | inconclusive: 0.522 µM [inhibitor, full curve]
CCOc1ccc(C(C)=O)cc1N1C(=O)C2C3C=CC(O3)C2C1=O (stereo unspecified) | inactive: -55.8% | 
CSCCC(NC(=O)c1ccccc1Cl)C(=O)NC1CCN(Cc2ccccc2)CC1 (stereo unspecified) | inactive: -21% | 
Cc1cccc(S(=O)(=O)Nc2ccc3c(c2)OCCO3)c1 | inactive: -10.2% | 
CC(C)Cc1nnc(NC(=O)CSc2nc(O)c(-c3ccccc3)c(=O)[nH]2)s1 |  | inconclusive: 13.1 µM [inhibitor, single point]
O=C(Nc1nc(-c2ccc(Cl)s2)cs1)c1ccccc1 |  | active: 9.28 µM
CCCc1nc2ccc([N+](=O)[O-])cc2[nH]1 |  | active: 10.4 µM
Oc1ccc(/C=C/c2ccc3cccc(O)c3n2)cc1Br |  | inconclusive: 8.28 µM [inhibitor, partial curve, poor fit]
COc1ccc(-n2cccc2/C=C2/NC(=O)N(c3cccc(Cl)c3)C2=O)cc1 | inactive: 71.6% | 
Cc1cccc(CN(C)CCc2ccccn2)c1 |  | inconclusive: 18.5 µM [inhibitor, single point]
NNc1nc(-c2ccccc2)cc(-c2ccccc2)n1 | inactive: 4.89% | 
COc1ccc(C(CC(=O)O)NC(=O)c2ccccc2)cc1OC (stereo unspecified) |  | inconclusive: 18.5 µM [inhibitor, single point]
Cc1cccc(NC(=S)N(CCN2CCOCC2)Cc2ccccc2F)c1 |  | inconclusive: 0.0329 µM [inhibitor, full curve, poor fit]

(continued)

SMILES	activity change, negative = inhibition	Potency
Cc1cccc(N2CCN(C(=O)COc3cc(=O)n(C)c4ccccc34)CC2)c1C		inconclusive: 8.28 µM [inhibitor, single point]
CCn1ccnc1CN1CCCC(C(=O)c2ccc3c4c(cccc24)CC3)C1 (stereo unspecified)		inconclusive: 11.7 µM [inhibitor, partial curve]
COc1ccc(CCC(=O)Nc2ccc(S(=O)(=O)N3CCCC3)cc2)cc1OC		inconclusive: 18.5 µM [inhibitor, single point]
COc1ccc(CNC(=O)c2c(C)oc3c2C(=O)c2ccccc2C3=O)cc1		active: 3.29 µM
O=C(O)c1ccc(N2CCCCCC2)c(N2C(=O)c3ccccc3C2=O)c1		inconclusive: 18.5 µM [inhibitor, single point]
C/C=C\C(=O)Nc1cccc(C2=NOC3(C2)C[C@@H](C(N)=O)N(C(=O)CCCCC)C3)c1 (stereo partly specified)		inconclusive: 18.5 µM [inhibitor, single point]
CN(c1ccc(F)cc1)S(=O)(=O)c1ccc(Cl)c(C(=O)Nc2ccc3c(c2)CCC3)c1		inconclusive: 18.5 µM [inhibitor, single point]
CCN(c1ccc(C)cc1)S(=O)(=O)c1nnc(NC(=O)c2ccco2)s1		inconclusive: 18.5 µM [inhibitor, single point]
CC(C)(Oc1ccc(Cl)cc1)C(=O)O/N=C(\N)c1ccncc1	inactive: 127%	
O=C(NCC(c1cccs1)N1CCOCC1)c1cccc([N+](=O)[O-])c1 (stereo unspecified)	inactive: -10.4%	
COc1ccc(OC)c(Nc2nc(N)c([N+](=O)[O-])c(N3CCOCC3)n2)c1		inconclusive: 10.4 µM [inhibitor, partial curve, poor fit]
O=C(CN1c2cccc3cccc(c23)S1(=O)=O)Nc1ccccc1F		inconclusive: 10.4 µM [inhibitor, partial curve, poor fit]
COC(=O)c1ccc(C2C(C(=O)c3cc4ccccc4o3)=C(O)C(=O)N2CCCN(C)C)cc1 (stereo unspecified)	inactive: 37.8%	
O=C(COC(=O)/C=C/c1ccc2c(c1)OCO2)NC1CCS(=O)(=O)C1 (stereo unspecified)	inactive: 13.5%	
C=CCn1c(SCC(=O)Nc2ccc(S(N)(=O)=O)cc2)nnc1-c1cnccn1		inconclusive: 18.5 µM [inhibitor, single point]
CN(C1CCCC1)C1CCN(C(=O)CNC(=O)/C=C/c2ccccc2)CC1		inconclusive: 10.4 µM [inhibitor, single point]
Cc1ccc(C)c(C(=O)Nc2ccncc2)c1		active: 2.08 µM
Fc1c(F)c(F)c(N2CCNCC2)c(F)c1F		inconclusive: 5.86 µM [inhibitor, partial curve, poor fit]
Cn1c(=O)c2[nH]c(NCCCN3CCOCC3)nc2n(C)c1=O		inconclusive: 0.0047 µM [inhibitor, full curve, poor fit]
CC1CCN(CCC(=O)NN)CC1		inconclusive: 8.28 µM [inhibitor, partial curve, poor fit]
CCCCC(=O)Nc1ccc(C(=O)N(CC)c2ccccc2C)cc1		inconclusive: 18.5 µM [inhibitor, single point]
CC(=O)N1c2ccc(S(=O)(=O)NCCC(=O)NCc3ccc(Cl)cc3)cc2CC1C (stereo unspecified)		inconclusive: 5.86 µM [inhibitor, partial curve]
CCN1C(=O)C2(Nc3ccccc3-c3nc4ccccc4n32)c2cc(OC)ccc21 (stereo unspecified)	inactive: 4.68%	
